US20190374627A1, “TARGET PEPTIDES FOR CANCER THERAPY AND DIAGNOSTICS” (priority 2016, published 2019)

Experiments:
Design in all cases: key: The presence of phosphopeptides in previously analyzed samples including leukemia, colorectal cancer, melanoma, ovarian cancer, breast cancer, and esophageal cancer is indicated by ✓
esophageal cancer = assay: Presence of the phosphopeptide in previously analyzed esophageal cancer samples
colorectal cancer = assay: Presence of the phosphopeptide in previously analyzed colorectal cancer samples
melanoma = assay: Presence of the phosphopeptide in previously analyzed melanoma samples
leukemia = assay: Presence of the phosphopeptide in previously analyzed leukemia samples

Substance | Esophageal (esophageal cancer) | Colorectal (colorectal cancer) | Melanoma (melanoma) | Leukemia (leukemia)
257 (RRGSFEVTL; (4)...(4) The amino acid at this position is optionally phosphorylated; listed as Homo sapiens) [compound 257] | ✓ | ✓ | – | –
242 (KRYSGNMEY; (4)...(4) The amino acid at this position is optionally phosphorylated; listed as Homo sapiens) [compound 242] | ✓ | ✓ | ✓ | –
269 (RRNSAPVSV; (4)...(4) The amino acid at this position is optionally phosphorylated; listed as Homo sapiens) [compound 269] | ✓ | ✓ | – | –
159 (RPRGSQSLL; (5)...(5) The amino acid at this position is optionally phosphorylated; listed as Homo sapiens) [compound 159] | ✓ | ✓ | – | –
149 (RPMSESPHM; (4)...(4) The amino acid at this position is optionally phosphorylated; listed as Homo sapiens) [compound 149] | ✓ | – | – | –
381 (TRKTPESFL; (4)...(4) The amino acid at this position is optionally phosphorylated; listed as Homo sapiens) [compound 381] | ✓ | – | – | –
268 (RRMSLLSVV; (4)...(4) The amino acid at this position is optionally phosphorylated; listed as Homo sapiens) [compound 268] | ✓ | ✓ | ✓ | –
374 (RKPSIVTKY; (4)...(4) The amino acid at this position is optionally phosphorylated; listed as Homo sapiens) [compound 374] | ✓ | – | – | ✓
376 (RRLSFLVSY; (4)...(4) The amino acid at this position is optionally phosphorylated; listed as Homo sapiens) [compound 376] | ✓ | ✓ | ✓ | –
289 (ITQGTPLKY; (5)...(5) The amino acid at this position is optionally phosphorylated; listed as Homo sapiens) [compound 289] | ✓ | ✓ | ✓ | –
140 (RPISPPHTY; (4)...(4) The amino acid at this position is optionally phosphorylated; listed as Homo sapiens) [compound 140] | ✓ | – | – | –
271 (RRPSLLSEF; (4)...(4) The amino acid at this position is optionally phosphorylated; listed as Homo sapiens) [compound 271] | ✓ | ✓ | – | –
196 (RPVSTDFAQY; (4)...(4) The amino acid at this position is optionally phosphorylated; listed as Homo sapiens) [compound 196] | ✓ | – | – | –
294 (TMASPGKDNY; (4)...(4) The amino acid at this position is optionally phosphorylated; listed as Homo sapiens) [compound 294] | ✓ | ✓ | ✓ | –
296 (YPLSPTKISQY; (4)...(4) The amino acid at this position is optionally phosphorylated; listed as Homo sapiens) [compound 296] | ✓ | – | – | –
191 (RPTSFADEL; (4)...(4) The amino acid at this position is optionally phosphorylated; listed as Homo sapiens) [compound 191] | ✓ | – | – | –
